Experimental data: article PMC12040169 (PLOS Biology, 2025)
The list shows a part of the results.

System: T1, CTL2-GFP (C. trachomatis L2/434/Bu, GFP-expressing)
T1 construct: L2/434/Bu, GFP-expressing
Design: species or system HeLa; Intracellular C. trachomatis growth in HeLa cells, bulk GFP fluorescence relative to DMSO
Conditions: bulk GFP, single well; 28.5 h, 10 µM; inhibitor

Row | SMILES | % of control remaining [%]
1 | CC1CCC(N(Cc2nnc(C3CCC3)n2C)CC2CCCO2)CC1 (stereo not drawn) [CBK305540] | 137.491
2 | NS(=O)(=O)c1ccc(CCNC(=O)c2cc(Br)cnc2N2CCOCC2)cc1 [CBK076225] | 144.497
3 | COc1ccc(/C=C(/NC(=O)c2cccc(Cl)c2)C(=O)Nc2ccccc2)cc1 [CBK263342] | 105.714
4 | Cc1nccn1CCC1CCN(C(=O)CCCn2ccnc2)CC1 [CBK281988] | 141.788
5 | Cc1nc2c(OCc3ccc(C#N)cc3)cccn2c1N(C)Cc1cccs1 [CBK147336] | 164.433
6 | Nc1ncc(-c2cc(C(F)(F)F)cc(C(F)(F)F)c2)nc1NCc1ccco1 [CBK063689] | 206.56
7 | COCCCn1c(=O)[nH]c2ncc(-c3cccc(C(=O)NCCO)c3)nc21 [CBK065042] | 113.868
8 | CCn1cc(C(=O)N2CCC(C(=O)OC)CC2)c(=O)c2ccc(C)nc21 [CBK305848] | 107.245
9 | O=C(NC1CCS(=O)(=O)C1)c1c[nH]c2ccccc2c1=O (stereo not drawn) [CBK304295] | 128.174
10 | CCc1nnc(SCc2cccc(C(=O)O)c2)o1 [CBK286993] | 118.582
11 | Cc1cc(Cl)c(S(=O)(=O)Nc2cccc(Br)c2)cc1OCC(N)=O [CBK266535] | 148.201
12 | COc1nc2ccn(CCC3CCOC3)c(=O)c2cc1C#N (stereo not drawn) [CBK307343] | 124.417
13 | COc1ccc(C(C)C)cc1-c1nccnc1NCc1ccc(S(C)(=O)=O)cc1 [CBK036903] | 135.221
14 | COCC(=O)NCC1Cc2cc(F)cc(-c3ccc(C(C)=O)s3)c2O1 (stereo not drawn) [CBK307310] | 122.183
15 | c1ccc2c(c1)CCC(Oc1cncc(N3CCNCC3)n1)C2 (stereo not drawn) [CBK172295G] | 111.247
16 | Cc1ccc2oc(C(=O)N3CCC(Oc4cccnc4)CC3)cc2c1 [CBK281498] | 99.209
17 | CC12CCC(=O)N1CCCN2 (stereo not drawn) [CBK067102T] | 147.277
18 | Cc1cc(C)nc(SCc2c(C)c(C)c(CSc3nc(C)cc(C)n3)c(C)c2C)n1 [CBK262070] | 102.798
19 | OCCCN1CCC(Oc2cncc(OCc3cccnc3)n2)C1 (stereo not drawn) [CBK084465] | 120.065
20 | O=C(NC(N1CCCCC1)C(Cl)(Cl)Cl)NC(N1CCCCC1)C(Cl)(Cl)Cl (stereo not drawn) [CBK261020] | 115.329
21 | Cc1nc(N)nc(NCC2CCN(C3CC3)C2)c1Cl (stereo not drawn) [CBK306575] | 144.849
22 | Cc1ccccc1OCc1nnc(SCc2c(Cl)cccc2[N+](=O)[O-])n1C [CBK265846] | 176.011
23 | CCOC(=O)CN/C(=N/O)c1c(Cl)cccc1Cl [CBK022374] | 146.469
24 | FC(F)(F)c1cccc(OC2CCCNC2)n1 (stereo not drawn) [CBK113290] | 119.822
25 | CC(=O)N1CC[C@@H]2NC(=O)[C@H]3C[C@H](NC(=O)c4ccc(F)c(Cl)c4)CN3C(=O)[C@H]21 [CBK289270] | 133.706
26 | CC(Oc1ccc(Cl)cc1Cl)C(=O)NC(=S)Nc1ccc2c(c1)C(=O)N(C)C2=O (stereo not drawn) [CBK267356] | 144.217

Row | SMILES | % of control remaining [%]
27 | CCOC(=O)CN1CCN(S(=O)(=O)c2ccc(F)c(F)c2F)CC1 [CBK044345] | 136.834
28 | O=C(c1ncoc1-c1ccc(F)cc1)N1CCN2CCCC2C1 (stereo not drawn) [CBK282399] | 160.709
29 | CCCn1c(C(=O)Nc2cccnc2)cc2c(=O)n(C)c(=O)n(C)c21 [CBK287838] | 122.661
30 | CCCc1cc(C(=O)NCCCN)cc(CCC)c1OCc1ccccc1 [CBK001736C] | 54.0582
31 | CC(C)C(=O)Nc1cccc(-c2cn3ccsc3n2)c1 [CBK096253] | 155.684
32 | Cc1cc(C(=O)N2CCC3(CCN(Cc4ccccc4)C3)C2)n[nH]1 (stereo not drawn) [CBK137092T] | 117.666
33 | Nc1n[nH]c(SCC(=O)N2CCN(C(c3ccccc3)c3ccccc3)CC2)n1 [CBK267893] | 125.98
34 | CCSCCN1CCC(Oc2nccnc2OCc2ccc(Br)cc2F)CC1 [CBK161087] | 120.072
35 | Cc1ccc(S(=O)(=O)N(CC(=O)Nc2cccnc2)c2ccc(F)cc2)cc1 [CBK263968] | 137.239
36 | C#CCNC(=O)N(C)C1CCN(c2ncnc3ccccc23)CC1 [CBK306109] | 96.9074
37 | CC1CC(C)CN(C2CCN(Cc3ccccn3)CC2)C1 (stereo not drawn) [CBK264639G] | 100
38 | Cc1ccc(S(=O)(=O)NC[C@H]2O[C@@H](CC(=O)N3CCOCC3)[C@H](O)[C@@H]2O)cc1 [CBK288924] | 109.508
39 | Cc1cccc(C(C)(C)C)c1NC(=O)NCCc1cccs1 [CBK044530] | 97.6455
40 | CN(C)C(CNS(=O)(=O)c1cc2c(cc1Br)NC(=O)CO2)c1ccc(F)cc1 (stereo not drawn) [CBK298296] | 131.151
41 | Nc1ncnc(NNC(=O)CNC(=O)c2ccccc2C(F)(F)F)c1[N+](=O)[O-] [CBK267186] | 167.296
42 | COc1ccc2[nH]cc(CCNC(=O)[C@@H]3Cc4c([nH]c5ccccc45)C4(CCN(Cc5ccc(F)cc5)C4)N3)c2c1 (stereo partly drawn) [CBK066937] | 117.5
43 | Cn1c(N2CC[C@H](O)C2)nc2cc(C(=O)NCCn3cccn3)ccc21 [CBK307328] | 139.282
44 | O=C(O)C1CCN(C(=O)CCN2C(=O)[C@@H]3Cc4ccccc4CN3C2=O)CC1 [CBK286682] | 151.274
45 | CN(C)CC1CN(c2nc(-c3ccncc3)nc3c2CCC3)CCO1 (stereo not drawn) [CBK305824] | 129.284
46 | CCN(CC)CCSc1nc(O)c(Cc2ccccc2)c(=O)[nH]1 [CBK072486] | 108.475
47 | CCCNC(=O)N1CCC(n2cnc3cccnc32)CC1 [CBK282282] | 105.738
48 | CN(Cc1cc(Br)cs1)C(=O)CCc1c[nH]c2ccccc12 [CBK298268] | 107.275
49 | CCc1ncc(C(=O)N(Cc2ccccn2)CC2CCCO2)cn1 (stereo not drawn) [CBK307077] | 84.0627
50 | COC(=O)c1ccc(N/C(C)=C/C(=O)c2ccc(C)o2)cc1 [CBK267057] | 60.5735
51 | CC(=O)Nc1ccc(S(=O)(=O)Nc2ccnc(N3CCN4CCCC4C3)n2)cc1 (stereo not drawn) [CBK000380C] | 112.572
52 | CC1CCc2c(sc(NC(=O)c3ccn(C)n3)c2C#N)C1 (stereo not drawn) [CBK304682] | 118.416

Four of these compounds in a different format.

| Row | SMILES | % of control remaining [%] |
| --- | --- | --- |
| 11 | Cc1cc(Cl)c(S(=O)(=O)Nc2cccc(Br)c2)cc1OCC(N)=O [CBK266535] | 148.201 |
| 12 | COc1nc2ccn(CCC3CCOC3)c(=O)c2cc1C#N (stereo not drawn) [CBK307343] | 124.417 |
| 13 | COc1ccc(C(C)C)cc1-c1nccnc1NCc1ccc(S(C)(=O)=O)cc1 [CBK036903] | 135.221 |
| 14 | COCC(=O)NCC1Cc2cc(F)cc(-c3ccc(C(C)=O)s3)c2O1 (stereo not drawn) [CBK307310] | 122.183 |

Next structures

Row | SMILES | % of control remaining [%]
53 | CCCSc1ncc(Cl)c(C(=O)Nc2ccc(S(=O)(=O)N3CC(C)OC(C)C3)cc2)n1 (stereo not drawn) [CBK269055] | 118.573
54 | O=[N+]([O-])c1ccc(N2CCN(S(=O)(=O)c3ccc4ccccc4c3)CC2)cc1 [CBK157773] | 122.461
55 | O=C(c1c[nH]nc1-c1cc2ccccc2o1)N1CCC(O)(C(F)(F)F)C1 (stereo not drawn) [CBK305549] | 135.474
56 | COc1ccc(-c2ccc3nnc(SCc4cccnc4)n3n2)cc1 [CBK287680] | 123.45
57 | CCOc1ccc(CNc2ccc(C3c4ccsc4CCN3C(=O)COC)cc2)cc1 (stereo not drawn) [CBK286453] | 105.348
58 | C[C@H](Cn1nc2c(cc1=O)CCCCC2)NC(=O)C1CCCC1 [CBK284546] | 160.515
59 | Cc1ccc(Nc2nc(O)ns2)cc1 [CBK026011] | 74.8685
60 | CCCOC1CCCN(c2nccc(-c3cc(C(=O)O)ccn3)n2)C1 (stereo not drawn) [CBK307703] | 125.046
61 | CSCCN1CCC2(CC1)CN(CCO)c1ccccc12 [CBK126771] | 103.344
62 | O=C(NC1CC2(CCOCC2)Oc2ccccc21)c1ccco1 (stereo not drawn) [CBK285378] | 117.901
63 | O=C(O)CCN1C(=O)C(O)=C(C(=O)c2ccc(Cl)cc2)C1c1ccccc1[N+](=O)[O-] (stereo not drawn) [CBK264553] | 116.466
64 | CC[C@H]1CN(C(=O)C2CC2)CC[C@H]1CC(=O)NCc1ccc2c(c1)OCO2 [CBK289133] | 125.348
65 | FC(F)(F)c1ccc2[nH]c(Cn3cncn3)nc2c1 [CBK007335] | 119.12
66 | O=C(O)CCC(=O)Nc1ccc(N2CCN(CCO)CC2)cc1 [CBK078486] | 103.175
67 | COCC(=O)Nc1nc2c(s1)C[C@]1(C)CC[C@@H]3[C@H](OC(=O)[C@H]3C)[C@H]1[C@@H]2C [CBK289430] | 153.31
68 | CCOc1cc(/C=N\NC(=O)CNc2ccccc2C)cc(Br)c1O [CBK262151] | 114.982
69 | O=S(=O)(NCCc1ccncc1)c1ccc(Cl)c(Cl)c1 [CBK044438] | 62.2976
70 | O=C(Nc1cncc(OC2CCNCC2)n1)c1cnc2ccccc2c1 [CBK036377T] | 107.71
71 | CCCN1C(=O)N(CO)C2C1N(CO)C(=O)N2CCC (stereo not drawn) [CBK263882] | 149.974
72 | CC(Oc1cccc(C#N)c1)C(=O)N1CCSCC1 (stereo not drawn) [CBK305748] | 87.8835
73 | S=C(NCCN1CCCCC1)NCc1ccco1 [CBK268171] | 110.236
74 | O=S(=O)(c1ccc(-c2cncc(-c3ccc(O)cc3)n2)cc1F)N1CCOCC1 [CBK126903] | 130.63
75 | COc1ccccc1-c1nnc(SCC(=O)N2CCN(c3ccccc3)CC2)[nH]1 [CBK270105] | 123.707
76 | CC(C)CCc1c(O)nc(SCCN(C)C)[nH]c1=O [CBK263382] | 100
77 | CC(C)C1OC(NCc2ccccc2Cl)=NC1=O (stereo not drawn) [CBK070344] | 107.975
78 | O=[N+]([O-])c1cccc(-c2noc([C@@H]3C[C@@H](O)CN3C3CCOCC3)n2)c1 [CBK288847] | 135.866
